Source: patent US8022035B2 (7TM Pharma A/S, priority 2005, dated 2011)

test: general procedure: Fmoc solid-phase peptide synthesis; PAL Peg-PS resin; HCTU; settings: whole synthesis, 215 nm

Going from [Glu10, Leu17, Thr30]PP2-36 to [Nle17, Nle30]PP2-36, the “purity (crude or final not stated)” value rises from 92.0% to 96.0%.

With [Glu10,Nle17,Nle30]PP2-36 the “purity (crude or final not stated)” value was 98.8%.
